In article PMC3722104 one finds binding data, which are given here for one substance.

Chains of the proteins cited; added tags and fusions are not shown. Residues count along the entry.
UniProt Q91ZX7, residues 20-4545: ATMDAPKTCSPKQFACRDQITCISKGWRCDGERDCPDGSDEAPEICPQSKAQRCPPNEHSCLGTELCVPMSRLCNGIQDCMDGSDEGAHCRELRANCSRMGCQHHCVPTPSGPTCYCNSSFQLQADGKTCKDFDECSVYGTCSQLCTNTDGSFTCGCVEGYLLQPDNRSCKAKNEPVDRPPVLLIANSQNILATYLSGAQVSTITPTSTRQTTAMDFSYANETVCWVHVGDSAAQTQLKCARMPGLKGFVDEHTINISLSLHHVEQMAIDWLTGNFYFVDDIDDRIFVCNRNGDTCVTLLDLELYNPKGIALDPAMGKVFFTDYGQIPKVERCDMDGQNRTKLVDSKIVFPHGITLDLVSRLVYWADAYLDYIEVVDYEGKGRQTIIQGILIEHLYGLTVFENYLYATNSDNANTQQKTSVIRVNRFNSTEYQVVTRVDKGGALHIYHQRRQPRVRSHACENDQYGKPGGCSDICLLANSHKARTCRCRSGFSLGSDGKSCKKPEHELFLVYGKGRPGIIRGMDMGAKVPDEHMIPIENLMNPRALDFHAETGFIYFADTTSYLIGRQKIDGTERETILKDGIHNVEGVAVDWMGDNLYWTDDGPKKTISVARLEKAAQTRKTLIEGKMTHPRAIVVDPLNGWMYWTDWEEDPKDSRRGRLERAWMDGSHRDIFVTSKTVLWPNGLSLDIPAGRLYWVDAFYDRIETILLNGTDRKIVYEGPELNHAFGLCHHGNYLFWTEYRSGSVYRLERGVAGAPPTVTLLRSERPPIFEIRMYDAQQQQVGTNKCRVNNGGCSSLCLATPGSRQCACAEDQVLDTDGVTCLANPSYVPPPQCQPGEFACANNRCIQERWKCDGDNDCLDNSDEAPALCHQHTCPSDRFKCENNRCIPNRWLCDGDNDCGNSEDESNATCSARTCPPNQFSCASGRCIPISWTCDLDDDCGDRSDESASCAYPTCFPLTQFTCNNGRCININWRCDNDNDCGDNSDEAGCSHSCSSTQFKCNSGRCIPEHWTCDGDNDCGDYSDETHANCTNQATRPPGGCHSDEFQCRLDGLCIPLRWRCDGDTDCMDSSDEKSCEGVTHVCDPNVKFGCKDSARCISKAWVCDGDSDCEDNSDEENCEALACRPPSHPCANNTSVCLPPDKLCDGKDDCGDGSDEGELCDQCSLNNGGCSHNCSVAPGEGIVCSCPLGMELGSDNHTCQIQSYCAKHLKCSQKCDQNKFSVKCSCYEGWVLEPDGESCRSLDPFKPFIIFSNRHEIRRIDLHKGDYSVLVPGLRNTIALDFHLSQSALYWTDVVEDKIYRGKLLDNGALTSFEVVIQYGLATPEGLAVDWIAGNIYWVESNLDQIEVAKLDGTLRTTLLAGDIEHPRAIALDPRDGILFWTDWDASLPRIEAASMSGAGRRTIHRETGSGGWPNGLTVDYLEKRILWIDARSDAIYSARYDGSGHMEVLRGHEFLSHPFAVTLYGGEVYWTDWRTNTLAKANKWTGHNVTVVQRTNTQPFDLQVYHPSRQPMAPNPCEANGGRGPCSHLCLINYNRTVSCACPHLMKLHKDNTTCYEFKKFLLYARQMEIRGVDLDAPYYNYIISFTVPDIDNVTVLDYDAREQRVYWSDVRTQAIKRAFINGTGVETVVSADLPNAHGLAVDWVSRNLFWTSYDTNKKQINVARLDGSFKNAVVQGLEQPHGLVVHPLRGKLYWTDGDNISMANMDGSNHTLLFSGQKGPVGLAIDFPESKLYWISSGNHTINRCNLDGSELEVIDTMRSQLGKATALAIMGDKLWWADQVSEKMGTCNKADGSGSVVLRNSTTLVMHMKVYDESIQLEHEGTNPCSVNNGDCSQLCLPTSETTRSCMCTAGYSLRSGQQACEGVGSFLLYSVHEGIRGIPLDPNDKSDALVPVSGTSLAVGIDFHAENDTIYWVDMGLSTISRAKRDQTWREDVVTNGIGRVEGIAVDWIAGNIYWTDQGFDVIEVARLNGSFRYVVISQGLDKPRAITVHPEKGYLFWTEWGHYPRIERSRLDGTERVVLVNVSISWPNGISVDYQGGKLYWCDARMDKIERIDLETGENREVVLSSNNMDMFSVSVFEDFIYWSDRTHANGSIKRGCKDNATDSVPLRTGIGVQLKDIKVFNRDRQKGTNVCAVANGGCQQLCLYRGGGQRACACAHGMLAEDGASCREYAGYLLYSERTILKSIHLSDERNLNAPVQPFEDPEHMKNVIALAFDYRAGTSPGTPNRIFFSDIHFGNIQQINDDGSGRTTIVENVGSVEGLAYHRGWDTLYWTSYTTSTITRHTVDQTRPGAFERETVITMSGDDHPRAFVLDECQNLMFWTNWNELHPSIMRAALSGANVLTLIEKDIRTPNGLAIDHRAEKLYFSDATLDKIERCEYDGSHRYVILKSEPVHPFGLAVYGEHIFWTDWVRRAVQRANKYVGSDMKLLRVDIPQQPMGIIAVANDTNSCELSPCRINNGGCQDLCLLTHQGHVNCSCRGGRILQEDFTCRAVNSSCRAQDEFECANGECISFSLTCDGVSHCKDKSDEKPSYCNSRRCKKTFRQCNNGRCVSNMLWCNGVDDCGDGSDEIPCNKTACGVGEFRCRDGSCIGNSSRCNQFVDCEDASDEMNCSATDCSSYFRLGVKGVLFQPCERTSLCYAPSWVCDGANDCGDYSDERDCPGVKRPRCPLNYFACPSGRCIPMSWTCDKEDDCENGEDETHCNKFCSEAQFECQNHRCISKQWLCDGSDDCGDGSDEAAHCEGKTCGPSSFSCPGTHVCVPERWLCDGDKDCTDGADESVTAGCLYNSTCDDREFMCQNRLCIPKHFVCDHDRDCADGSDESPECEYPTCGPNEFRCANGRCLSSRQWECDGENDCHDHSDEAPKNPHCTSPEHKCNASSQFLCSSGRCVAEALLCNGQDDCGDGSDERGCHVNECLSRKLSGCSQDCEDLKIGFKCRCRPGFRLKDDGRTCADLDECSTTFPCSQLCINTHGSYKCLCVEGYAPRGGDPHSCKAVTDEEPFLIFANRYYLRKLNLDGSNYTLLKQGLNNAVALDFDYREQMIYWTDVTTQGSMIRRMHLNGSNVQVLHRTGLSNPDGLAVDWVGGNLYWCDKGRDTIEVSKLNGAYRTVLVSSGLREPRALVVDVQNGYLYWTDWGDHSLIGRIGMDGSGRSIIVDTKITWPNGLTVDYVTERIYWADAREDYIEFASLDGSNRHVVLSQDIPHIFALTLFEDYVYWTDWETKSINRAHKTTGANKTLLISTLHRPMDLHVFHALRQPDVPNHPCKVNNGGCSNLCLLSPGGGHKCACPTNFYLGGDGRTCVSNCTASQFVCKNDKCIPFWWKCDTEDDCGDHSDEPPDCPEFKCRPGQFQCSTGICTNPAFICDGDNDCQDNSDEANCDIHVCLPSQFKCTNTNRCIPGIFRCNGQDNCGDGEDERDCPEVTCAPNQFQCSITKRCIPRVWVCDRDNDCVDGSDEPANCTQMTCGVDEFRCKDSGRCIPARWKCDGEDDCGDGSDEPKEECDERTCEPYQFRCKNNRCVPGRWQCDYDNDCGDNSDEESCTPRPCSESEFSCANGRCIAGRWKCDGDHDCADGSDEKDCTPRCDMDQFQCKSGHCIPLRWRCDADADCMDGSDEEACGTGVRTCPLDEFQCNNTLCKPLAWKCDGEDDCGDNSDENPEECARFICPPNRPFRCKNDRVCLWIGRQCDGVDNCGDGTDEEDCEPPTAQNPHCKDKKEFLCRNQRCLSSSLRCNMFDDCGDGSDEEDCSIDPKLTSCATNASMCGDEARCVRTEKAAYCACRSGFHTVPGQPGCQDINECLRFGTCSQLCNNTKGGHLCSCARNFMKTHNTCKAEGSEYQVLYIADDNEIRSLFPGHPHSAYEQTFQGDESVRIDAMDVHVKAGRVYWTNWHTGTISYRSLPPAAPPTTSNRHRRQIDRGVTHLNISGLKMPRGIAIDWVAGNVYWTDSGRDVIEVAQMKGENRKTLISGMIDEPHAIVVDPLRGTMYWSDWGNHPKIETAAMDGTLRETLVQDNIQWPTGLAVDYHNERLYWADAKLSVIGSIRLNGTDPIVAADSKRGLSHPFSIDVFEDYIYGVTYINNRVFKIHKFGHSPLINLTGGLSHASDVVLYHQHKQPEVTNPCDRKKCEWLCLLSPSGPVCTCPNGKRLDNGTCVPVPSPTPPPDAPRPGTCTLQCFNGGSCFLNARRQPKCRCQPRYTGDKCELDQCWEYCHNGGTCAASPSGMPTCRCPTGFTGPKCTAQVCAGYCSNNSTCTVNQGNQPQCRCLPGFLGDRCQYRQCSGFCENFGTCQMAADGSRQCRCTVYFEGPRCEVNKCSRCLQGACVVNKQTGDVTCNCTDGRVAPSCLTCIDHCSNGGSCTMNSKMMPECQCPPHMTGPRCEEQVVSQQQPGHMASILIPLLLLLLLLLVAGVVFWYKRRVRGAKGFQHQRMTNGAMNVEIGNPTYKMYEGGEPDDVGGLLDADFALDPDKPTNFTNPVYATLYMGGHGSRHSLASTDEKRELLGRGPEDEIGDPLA
UniProt Q01097, residues 27-1482: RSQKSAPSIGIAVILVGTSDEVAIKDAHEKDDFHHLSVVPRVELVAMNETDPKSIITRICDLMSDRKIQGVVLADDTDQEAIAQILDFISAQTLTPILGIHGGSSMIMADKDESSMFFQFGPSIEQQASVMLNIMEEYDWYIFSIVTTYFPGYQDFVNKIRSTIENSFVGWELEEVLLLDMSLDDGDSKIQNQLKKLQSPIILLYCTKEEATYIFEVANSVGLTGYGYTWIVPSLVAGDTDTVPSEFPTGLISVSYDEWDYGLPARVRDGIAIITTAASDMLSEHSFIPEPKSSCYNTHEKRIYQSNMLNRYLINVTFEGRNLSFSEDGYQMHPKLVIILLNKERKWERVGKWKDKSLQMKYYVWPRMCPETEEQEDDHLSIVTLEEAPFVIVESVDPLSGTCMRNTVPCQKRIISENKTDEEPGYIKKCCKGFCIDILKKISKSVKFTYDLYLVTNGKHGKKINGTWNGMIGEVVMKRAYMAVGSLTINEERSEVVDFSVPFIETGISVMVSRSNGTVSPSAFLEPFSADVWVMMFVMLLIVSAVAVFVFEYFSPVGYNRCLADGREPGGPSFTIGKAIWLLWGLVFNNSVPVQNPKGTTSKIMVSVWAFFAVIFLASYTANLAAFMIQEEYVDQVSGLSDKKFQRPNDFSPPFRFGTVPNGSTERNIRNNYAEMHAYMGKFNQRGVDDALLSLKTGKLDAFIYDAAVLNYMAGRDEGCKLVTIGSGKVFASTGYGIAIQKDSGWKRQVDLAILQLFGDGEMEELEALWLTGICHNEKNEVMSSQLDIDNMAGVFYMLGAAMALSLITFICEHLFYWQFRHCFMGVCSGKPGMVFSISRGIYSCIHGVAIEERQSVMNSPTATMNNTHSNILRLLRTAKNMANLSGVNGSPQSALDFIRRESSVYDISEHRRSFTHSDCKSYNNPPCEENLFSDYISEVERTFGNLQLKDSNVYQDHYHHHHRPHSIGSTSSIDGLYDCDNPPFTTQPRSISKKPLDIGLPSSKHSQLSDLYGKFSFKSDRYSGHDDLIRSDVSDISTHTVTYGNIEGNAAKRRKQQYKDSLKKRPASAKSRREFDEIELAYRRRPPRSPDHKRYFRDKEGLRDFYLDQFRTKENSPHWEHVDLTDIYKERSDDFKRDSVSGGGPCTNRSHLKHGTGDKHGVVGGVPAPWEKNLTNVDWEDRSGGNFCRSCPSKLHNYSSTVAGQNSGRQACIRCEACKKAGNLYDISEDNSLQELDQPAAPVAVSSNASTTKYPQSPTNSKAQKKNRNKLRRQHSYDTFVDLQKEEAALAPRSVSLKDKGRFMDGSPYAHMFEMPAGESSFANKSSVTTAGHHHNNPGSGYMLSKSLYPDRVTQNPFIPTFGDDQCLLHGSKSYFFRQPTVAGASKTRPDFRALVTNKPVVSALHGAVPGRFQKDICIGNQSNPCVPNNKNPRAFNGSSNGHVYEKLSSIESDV

No constants are given. Whether binding was seen depends on the method and setting. In cells and extracts the contact can be indirect. Some binding calls cover weakened binding; strength is not graded here.

Assay [1] has as its target Low density lipoprotein receptor-related protein 1 (LRP1), wild type (mouse (endogenous in primary cortical neurons)) (UniProt Q91ZX7). Put plainly: co-IP; lysates of primary cortical neurons (WT or LRP1ΔNPxY2) in RIPA buffer with protease and phosphatase inhibitors; equal amounts of total lysate (80 µg) precipitated with polyclonal LRP1 antibody 1704 and protein G sepharose at 4°C overnight; Western blot for NR1, NR2B or PSD95.

The target is the same in assay [2]. Put plainly: condition: only lysate treated with calf intestinal phosphatase (CIP, 10 units/μg protein, 30 minutes at 37°C); co-IP; neuronal lysates in RIPA buffer with protease inhibitors, 100 µg protein treated with 1000 units calf intestinal phosphatase (CIP) in phosphatase buffer (50 mM Tris-HCl, 100 mM NaCl, 10 mM MgCl2, 1 mM DTT, pH 7.9) at 37°C for 30 min before immunoprecipitation of LRP1 and Western blot.

As for “NMDA receptor subunit 2B (NR2B) (from UniProt Q01097 27-1482)”, the figures for the binding entry in assay [1] and in assay [2] were “binds” and “no binding”, respectively.
